PubChem BioAssay AID1508588 | Peter MacCallum Cancer Centre, 2020
Here is an unselected part of about 18,000 reagents. In the full data, 790 (4.4%) are marked active. 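Calls rest on a combination of fold-change classes in drug and vehicle arms, not all shown here.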 A number with no mark means an inactive call. Reagent sequences are not shown.

- Assay: 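Knock-downs boosting vemurafenib effects on melanoma cell growth or lactate release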 (primary screen)
- Cell system: human WM266.4 melanoma cells (BRAF V600 mutant)
- Knock-down reagent: siRNA pool against human genes, 40 nM
- Timing: 96 h from transfection to read-out
- Treatment: vemurafenib 300 nM (about IC25), added 48 h after transfection, for 48 h; comparison arm got DMSO vehicle only
- Read-out: 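Ratios to non-targeting siRNA for cell gain, counted as DAPI nuclei after minus before drug and averaged over two replicates, and for absorbance-read medium lactate per cell; both binned into fold-change classes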
- Scale: cell gain with vemurafenib: higher = more cell gain than with non-targeting siRNA; lactate per cell with vemurafenib: higher = more lactate made per cell
- Hit rule: 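a knock-down counts as enhancing when its fold-change classes with vehicle and with vemurafenib, taken together, show a stronger drug effect on cell gain or lactate per cell; exact class pairs not stated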
- Calls: active = enhances vemurafenib effect; inactive = no enhancement seen

| gene | cell gain with vemurafenib | lactate per cell with vemurafenib |
| --- | --- | --- |
| FAXC | 0.45 | 0.56 |
| JMJD6 | 0.32 | 0.94 |
| MEAK7 | 0.6 | 1.09 |
| TRIM50 | 0.73 | 0.84 |
| LHX5 | 1.03 | 0.62 |
| MRPL3 | 0.79 | 0.94 |
| LONRF1 | 0.88 | 1.1 |
| CRYBG1 | 0.71 | 0.76 |
| HMGCS1 | 0.34 | 1.77 |
| HTR5A | 0.56 (active) | 0.44 |
| GOLGA6A | 1.2 | 0.96 |
| FNBP4 | 0.61 | 0.81 |
| RBAKDN | 1.05 | 1.13 |
| CDC42EP4 | 0.09 | 2.95 |
| IL6R | 0.29 | 1.19 |
| BHLHE22 | 0.69 | 0.55 |
| SGPP2 | 0.98 | 0.93 |
| R3HDM4 | 0.24 | 2.6 |
| SCAF4 | 1.13 | 0.57 |
| POLE3 | 0.13 (active) | 0.12 |
| OLFM2 | 0.22 | 1.21 |
| SLC29A4 | 0.6 | 0.86 |
| SPRR2B | 0.88 | 0.73 |
| BRICD5 | 0.59 | 0.84 |
| HLA-DRB5 | 0.65 | 0.92 |
| PLCXD3 | 0.39 | 1.02 |
| HS6ST2 | 1.01 | 0.46 |
| ERMN | 0.69 | 0.66 |
| ITPRID2 | 0.91 | 0.6 |
| SLC25A30 | 0.72 | 0.64 |
| ZNF205 | 0.75 | 0.79 |
| IPO5 | 0.81 | 1.04 |
| ZNF334 | 1.03 | 0.34 |
| GRB7 | 0.71 | 0.73 |

Reprinted from above, 3 entries:
| gene | cell gain with vemurafenib | lactate per cell with vemurafenib |
| --- | --- | --- |
| TRIM50 | 0.73 | 0.84 |
| LHX5 | 1.03 | 0.62 |
| MRPL3 | 0.79 | 0.94 |
